{
  "source": "the supplement of paper PMC8728848",
  "test_in_all_cases": "glycan array binding signal (z-score within array); higher = stronger binding",
  "conditions_in_all_cases": "glycan notation: IUPAC condensed, linker removed",
  "key": {"[1]": {"target": "Gal(b1-4)GlcNAc(b1-2)Man(a1-6)[Man(a1-3)]Man(b1-4)GlcNAc(b1-4)GlcNAc", "in_short": "(§1)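 The Consortium for Functional Glycomics database supplied 3228 glycan arrays, of which those lacking an available protein sequence were dropped. The binding signal, a within-array Z-score, was averaged across arrays of the same protein sequence and across linkers. Negative scores can be read as non-binding.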"}, "[2]": {"target": "Gal(b1-4)GlcNAc(b1-2)[Gal(b1-4)GlcNAc(b1-4)]Man(a1-3)[Gal(b1-4)GlcNAc(b1-2)Man(a1-6)]Man(b1-4)GlcNAc(b1-4)GlcNAc", "in_short": "as §1"}, "[3]": {"target": "Gal(b1-4)GlcNAc(b1-2)[Gal(b1-4)GlcNAc(b1-4)]Man(a1-3)[Gal(b1-4)GlcNAc(b1-2)[Gal(b1-4)GlcNAc(b1-6)]Man(a1-6)]Man(b1-4)GlcNAc(b1-4)GlcNAc", "in_short": "as §1"}, "[4]": {"target": "Gal(b1-4)GlcNAc(b1-2)[Gal(b1-4)GlcNAc(b1-4)]Man(a1-3)[GlcNAc(b1-4)][Gal(b1-4)GlcNAc(b1-2)Man(a1-6)]Man(b1-4)GlcNAc(b1-4)GlcNAc", "in_short": "as §1"}, "[5]": {"target": "Gal(b1-4)GlcNAc(b1-2)[Gal(b1-4)GlcNAc(b1-4)]Man(a1-3)[GlcNAc(b1-4)][Gal(b1-4)GlcNAc(b1-2)[Gal(b1-4)GlcNAc(b1-6)]Man(a1-6)]Man(b1-4)GlcNAc(b1-4)GlcNAc", "in_short": "as §1"}, "[6]": {"target": "Gal(b1-4)GlcNAc(b1-2)[Gal(b1-4)GlcNAc(b1-6)]Man(a1-6)[Gal(b1-4)GlcNAc(b1-2)Man(a1-3)]Man(b1-4)GlcNAc(b1-4)GlcNAc", "in_short": "as §1"}, "[7]": {"target": "Gal(b1-4)GlcNAc(b1-2)[Gal(b1-4)GlcNAc(b1-6)]Man(a1-6)[Gal(b1-4)GlcNAc(b1-2)Man(a1-3)]Man(b1-4)GlcNAc(b1-4)[Fuc(a1-6)]GlcNAc", "in_short": "as §1"}, "[8]": {"target": "Gal(b1-4)GlcNAc(b1-2)[Gal(b1-4)GlcNAc(b1-6)]Man(a1-6)[GlcNAc(b1-4)][Gal(b1-4)GlcNAc(b1-2)Man(a1-3)]Man(b1-4)GlcNAc(b1-4)GlcNAc", "in_short": "as §1"}, "[9]": {"target": "Gal(b1-4)GlcNAc(b1-2)[Gal(b1-4)GlcNAc(b1-6)]Man(a1-6)[GlcNAc(b1-4)][Gal(b1-4)GlcNAc(b1-2)[Gal(b1-4)GlcNAc(b1-4)]Man(a1-3)]Man(b1-4)GlcNAc(b1-4)[Fuc(a1-6)]GlcNAc", "in_short": "as §1"}, "[10]": {"target": "Gal(b1-4)GlcNAc(b1-3)Gal(b1-3)GalNAc", "in_short": "as §1"}, "[11]": {"target": "Gal(b1-4)GlcNAc(b1-3)Gal(b1-3)GlcNAc", "in_short": "as §1"}, "[12]": {"target": "Gal(b1-4)GlcNAc(b1-3)Gal(b1-4)Glc", "in_short": "as §1"}, "[13]": {"target": "Gal(b1-4)GlcNAc(b1-3)Gal(b1-4)GlcNAc", "in_short": "as §1"}, "[14]": {"target": "Gal(b1-4)GlcNAc(b1-3)Gal(b1-4)GlcNAc(b1-2)Man(a1-3)[Gal(b1-4)GlcNAc(b1-3)Gal(b1-4)GlcNAc(b1-2)Man(a1-6)]Man(b1-4)GlcNAc(b1-4)GlcNAc", "in_short": "as §1"}, "[15]": {"target": "Gal(b1-4)GlcNAc(b1-3)Gal(b1-4)GlcNAc(b1-2)Man(a1-3)[Gal(b1-4)GlcNAc(b1-3)Gal(b1-4)GlcNAc(b1-2)Man(a1-6)]Man(b1-4)GlcNAc(b1-4)[Fuc(a1-6)]GlcNAc", "in_short": "as §1"}, "[16]": {"target": "Gal(b1-4)GlcNAc(b1-3)Gal(b1-4)GlcNAc(b1-2)[Gal(b1-4)GlcNAc(b1-3)Gal(b1-4)GlcNAc(b1-6)]Man(a1-6)[Gal(b1-4)GlcNAc(b1-3)Gal(b1-4)GlcNAc(b1-2)Man(a1-3)]Man(b1-4)GlcNAc(b1-4)GlcNAc", "in_short": "as §1"}, "[17]": {"target": "Gal(b1-4)GlcNAc(b1-3)Gal(b1-4)GlcNAc(b1-2)[Gal(b1-4)GlcNAc(b1-3)Gal(b1-4)GlcNAc(b1-6)]Man(a1-6)[Gal(b1-4)GlcNAc(b1-3)Gal(b1-4)GlcNAc(b1-2)Man(a1-3)]Man(b1-4)GlcNAc(b1-4)[Fuc(a1-6)]GlcNAc", "in_short": "as §1"}, "[18]": {"target": "Gal(b1-4)GlcNAc(b1-3)Gal(b1-4)GlcNAc(b1-3)Gal(b1-4)GlcNAc", "in_short": "as §1"}, "[19]": {"target": "Gal(b1-4)GlcNAc(b1-3)Gal(b1-4)GlcNAc(b1-3)Gal(b1-4)GlcNAc(b1-2)Man(a1-3)[Gal(b1-4)GlcNAc(b1-3)Gal(b1-4)GlcNAc(b1-3)Gal(b1-4)GlcNAc(b1-2)Man(a1-6)]Man(b1-4)GlcNAc(b1-4)GlcNAc", "in_short": "as §1"}, "[20]": {"target": "Gal(b1-4)GlcNAc(b1-3)Gal(b1-4)GlcNAc(b1-3)Gal(b1-4)GlcNAc(b1-2)Man(a1-3)[Gal(b1-4)GlcNAc(b1-3)Gal(b1-4)GlcNAc(b1-3)Gal(b1-4)GlcNAc(b1-2)Man(a1-6)]Man(b1-4)GlcNAc(b1-4)[Fuc(a1-6)]GlcNAc", "in_short": "as §1"}, "[21]": {"target": "Gal(b1-4)GlcNAc(b1-3)Gal(b1-4)GlcNAc(b1-3)Gal(b1-4)GlcNAc(b1-2)[Gal(b1-4)GlcNAc(b1-3)Gal(b1-4)GlcNAc(b1-3)Gal(b1-4)GlcNAc(b1-6)]Man(a1-6)[Gal(b1-4)GlcNAc(b1-3)Gal(b1-4)GlcNAc(b1-3)Gal(b1-4)GlcNAc(b1-2)Man(a1-3)]Man(b1-4)GlcNAc(b1-4)[Fuc(a1-6)]GlcNAc", "in_short": "as §1"}, "[22]": {"target": "Gal(b1-4)GlcNAc(b1-3)Gal(b1-4)GlcNAc(b1-3)Gal(b1-4)GlcNAc(b1-3)Gal(b1-4)GlcNAc(b1-2)Man(a1-3)[Gal(b1-4)GlcNAc(b1-3)Gal(b1-4)GlcNAc(b1-3)Gal(b1-4)GlcNAc(b1-3)Gal(b1-4)GlcNAc(b1-2)Man(a1-6)]Man(b1-4)GlcNAc(b1-4)GlcNAc", "in_short": "as §1"}},
  "note": "Some of the results follow.",
  "data": [
    {"binder": "Langerin K299A/K313A (Homo sapiens), Q9UJ71 (protein) STLNAQIPELKSDLEKASALNTKIRALQGSLENMSKLLKRQNDILQVVSQGWKYFKGNFYYFSLIPKTWYSAEQFCVSRNSHLTSVTSESEQEFLYKTAGGLIYWIGLTKAGMEGDWSWVDDTPFNKVQSARFWIPGEPNNAGNNEHCGNIAAPSLQAWNDAPCDATFLFICKRPYVPSEP", "values": [
      {"measurement": "glycan array binding signal (z-score)", "setting": "[1]", "value": -0.914},
      {"measurement": "glycan array binding signal (z-score)", "setting": "[2]", "value": 0.381},
      {"measurement": "glycan array binding signal (z-score)", "setting": "[3]", "value": -0.403},
      {"measurement": "glycan array binding signal (z-score)", "setting": "[4]", "value": -0.95},
      {"measurement": "glycan array binding signal (z-score)", "setting": "[5]", "value": -0.204},
      {"measurement": "glycan array binding signal (z-score)", "setting": "[6]", "value": 0.52},
      {"measurement": "glycan array binding signal (z-score)", "setting": "[7]", "value": 1.26},
      {"measurement": "glycan array binding signal (z-score)", "setting": "[8]", "value": -0.291},
      {"measurement": "glycan array binding signal (z-score)", "setting": "[9]", "value": 0.35},
      {"measurement": "glycan array binding signal (z-score)", "setting": "[10]", "value": -0.417},
      {"measurement": "glycan array binding signal (z-score)", "setting": "[11]", "value": -1.11},
      {"measurement": "glycan array binding signal (z-score)", "setting": "[12]", "value": -0.709},
      {"measurement": "glycan array binding signal (z-score)", "setting": "[13]", "value": -0.206},
      {"measurement": "glycan array binding signal (z-score)", "setting": "[14]", "value": 3.14},
      {"measurement": "glycan array binding signal (z-score)", "setting": "[15]", "value": 1.43},
      {"measurement": "glycan array binding signal (z-score)", "setting": "[16]", "value": 1.86},
      {"measurement": "glycan array binding signal (z-score)", "setting": "[17]", "value": 2.52},
      {"measurement": "glycan array binding signal (z-score)", "setting": "[18]", "value": -0.541},
      {"measurement": "glycan array binding signal (z-score)", "setting": "[19]", "value": 2.42},
      {"measurement": "glycan array binding signal (z-score)", "setting": "[20]", "value": 1.46},
      {"measurement": "glycan array binding signal (z-score)", "setting": "[21]", "value": -0.105},
      {"measurement": "glycan array binding signal (z-score)", "setting": "[22]", "value": 1.26}
    ]}
  ]
}
